# In patent US6265617A, “Process for the preparation of 3,5,5-trimethylcyclohexa-3-en-1-one (β-isophorone) by isomerization of 3,5,5- trimethylcyclohexa-2-en-1-one (α-isophorone)” (Degussa-Huls Aktiengesellschaft, priority 1998, dated 2001):
# Test: Catalyst activity in liquid-phase isomerization of α-isophorone to β-isophorone
# Conditions: boiling point, normal pressure, 25 vol.% withdrawal
# Description: The apparatus for carrying out the isomerization consists of a mushroom-shaped heater, an isomerization flask with attached distillation column, through which a primary mixture composed of α-IP and β-IP is withdrawn, and a pump for recirculating the unreacted α-isophorone left after the purifying distillation of β-IP. […] The suspension is heated to boiling point at normal pressure and the quantity of the α-IP delivered by a Telab pump is coordinated with the quantity of the distillate withdrawn.
# The primary distillate obtained is conveyed to a distillation column operating at a partial vacuum of 5 mbar to 100 mbar. […] The bottom product consisting of unreacted α-isophorone is returned to the isomerization reactor.
# (§1) Technical sodium hydroxide in various concentrations is stirred into α-IP in the apparatus already described above. With the identical continuous procedure (see Example 1), at the top of the isomerization unit a withdrawal rate of 25 vol.% of a primary distillate is established, based on the quantity of isomerization and the reflux ratio.
# as §1, with “potassium carbonate” for “sodium hydroxide”
# Various catalysts containing alkali-metal cations are compared with regard to their catalytic activity during the isomerization under conditions corresponding to those in the previous Examples.
# Various alkali-metal bases and alkaline-earth bases used as catalysts are compared with regard to their catalytic activity during the isomerization under conditions corresponding to those in the previous Examples.
# Various catalysts containing alkali-metal cations and the elements are compared with regard to their catalytic activity during the isomerization under conditions corresponding to those in the previous Examples.
# [1] = 2 × 10^-2 mol.% catalyst per mol α-IP
# [2] = 2 × 10^-0 mol.% catalyst per mol α-IP
# [3] = 2 × 10^-1 mol.% catalyst per mol α-IP
Compound,Rate of formation of HB (high boilers) [1],Rate of formation of HB (high boilers) [2],Rate of formation of HB (high boilers) [3]
[Ca+2].[OH-].[OH-] [Ca(OH)2],0.4 g HB/h/liter α-IP,–,–
"O=C(O)O [K2 CO3, potassium carbonate]",0.9 g HB/h/liter α-IP,57.2 g HB/h/liter α-IP,26.3 g HB/h/liter α-IP
O=C(O)O [KHCO3],3.0 g HB/h/liter α-IP,–,–
[K+].[OH-] [KOH],3.9 g HB/h/liter α-IP,–,–
O=C(O)O [Li2 CO3],0.4 g HB/h/liter α-IP,–,–
[AlH4-].[Li+] [LiAIH4],0.8 g HB/h/liter α-IP,–,–
[BH4-].[Li+] [LiBH4],0.8 g HB/h/liter α-IP,–,–
[Li+].[OH-] [LiOH],3.0 g HB/h/liter α-IP,–,–
[Mg+2].[OH-].[OH-] [Mg(OH)2],0.8 g HB/h/liter α-IP,–,0.7 g HB/h/liter α-IP
"O=C(O)O [Na2 CO3, sodium carbonate]",0.6 g HB/h/liter α-IP,1.7 g HB/h/liter α-IP,0.6 g HB/h/liter α-IP
CO [Na(OMe)],0.7 g HB/h/liter α-IP,–,–
O=C(O)O [NaHCO3],0.8 g HB/h/liter α-IP,–,–
[H-].[Na+] [NaH],0.8 g HB/h/liter α-IP,–,–
"[NH2-].[Na+] [NaNH2, sodium amide]",1.0 g HB/h/liter α-IP,–,–
"[Na+].[OH-] [NaOH, sodium hydroxide]",0.5 g HB/h/liter α-IP,–,35.4 g HB/h/liter α-IP
[Na] [Na],0.7 g HB/h/liter α-IP,–,–
O=S(=O)([O-])O.[K+] [kHSO4],0.7 g HB/h/liter α-IP,–,–
